Source: PubChem BioAssay AID1159506 (NCATS, 2015).

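Luminescence from an EWS-FLI1 target-promoter (NR0B1) reporter, set against a CMV-promoter reporter, two days after silencing single genes in TC32 Ewing sarcoma cells.
Each siRNA was applied at 20 nM.
A z-score of the log NR0B1-over-CMV signal, less the median of siRNAs with the same seed; more negative means a stronger specific loss of the NR0B1 reporter.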

This is part of the screen; most of the strongest results are not listed here.
Sequences are the guide (antisense) strand, without overhang.

siRNA	gene	seed-corrected z-score
AAAGUGACCCGACCACCUC	TGFBR3L	-1.105
AUAGGGAUAAUAGGCUCCU	IRX6	0.7451
UUUACUUCGACAGUGUGCC	FASTKD5	0.3947
AUUUGGACUCACACUUUUG	LELP1	0.3196
AGUGGAAUAAGGCCUGUUG	SOD2	-0.1775
UGAAAUGGCAGUUUGCGGA	HIST1H3J	2.249
UCUGAGCCCAAAGUAGUAG	GID8	0.1775
UGUUGAACAACGUAACAUG	RIMKLB	0.8108
UUAAGGCUAUGGGCGAAGG	ATP1B4	1.112
ACUGGUUGGACCUUGAUGG	FREM3	0.2669
UCCUCUAUAUAAUUAGUUC	WT1-AS	0.2438
UUCUUGUAUUGGGCACAGC	ALDOC	0.1724
UCUUCGACUAAUUAGAUCC	ARHGAP21	0.758
UAAGCGAUCAGGUUGAUUU	WBP1L	1.142
UAAUCAAAGUGGGCAUUUC	HECA	-0.9357
UUUGUCAGCAGAGACGAUG	TUBAL3	-0.7265
UCAUCGAAUUUUGAACUGC	WAPL	0.6699
UCUUUCAUCCCAUCCCACG	NDUFB11	-0.3858
UAAGGUCCAACGAUCUCCC	CERS6	0.09916
UAAUGGACCAGUCCUCGUG	DDX49	0.4407
UAUGUAAGCUGUUCGCAGG	FAM111B	-0.01513
AACUUGAUUCGGGAUAACC	PCIF1	-0.5502
UCCUGGUUAAGCAAGGACC	NRIP1	0.1603
UACUACUCUAAGAACCUGG	ME1	-0.7427
UCCACGAACUGCUUCUCCC	VCY	0.1126
UUCGAUCAUACGGCUCUUC	ZNF432	-0.1746
UCCAGGUUUGUACACUUUC	MT1IP	-0.2311
UUCGUUCCAUAUUUGACUC	BUB1	-1.021
UGUGCAACUACGUCAUAGC	MVB12B	0.3585
AUCGUGGACAAAGAAAGCC	NLE1	0.3612
UUAGUUGGACGGUUUUGCC	LSM14B	-0.2679
UUUAGUACUGUCAUCCUUG	BROX	0.2574
UCUGUGCAGAACGAUCUCC	PAEP	-0.1726
UUUGAUCAUUGUCAAGUGC	S1PR3	-1.894
UCGUGUAUCAUAUUCUUCC	DNAJC21	-1.074
UUCGGGUUCAGGAAAUAAC	TMCO4	0.7595
UGAUCUAUAAUAGCCUUGC	CTNNA3	-0.2789
AGCACAGUAAUACAUAGCC	VPREB1	-0.5542
UCUAUUCCCAUCCAUGUUC	LOC400756	-0.8578
AAGCUAUUGACAGGUGUGC	SMPD1	0.2218